For at least one entry, the source does not settle the construct or the ends of the probe. Negatives hold for the conditions tested.
System: Rad24-RFC clamp loader + 9-1-1 clamp (Ddc1-Mec3-Rad17)
Assay: cryo-EM complex assembly
Details: 0.5 mM ATPgS, 5 mM Mg acetate, no ternary complex observed, 3'-terminal ddC on primer strand, 1.8 uM Rad24-RFC, 2.2 uM 9-1-1, 2.7 uM DNA, 9-1-1 + DNA 10 min at 30 C, recombinant protein

CTGCACGAATTAAGCAATTCGTAATCATGGTCATAGCT / AGCTATGACCATGATTACGAATTGC [3'-recessed DNA]
binding result: no binding

Source: article PMC9010301
